Assay results published in publication PMC7244035.
Results are given in words; binding and its absence hold for the method and conditions named. Binding seen in cells or lysates may run through a third protein. Some binding calls cover weakened binding; strength is not graded here. For part of these data: Sequences can lack the tags named with a protein. Values belong to the binder of their own block, whether it stands above or below them.

How the values were obtained:
[1] = target: T1, APC membrane recruitment 1 (Amer1), endogenous (human (endogenous in MGC-803)) (UniProt Q5JTC6); assay: co-IP; endogenous Amer1 and KIF23; protein extract in Co-IP buffer, antibody overnight at 4°C, protein A/G-agarose, Western blot
T1 sequence: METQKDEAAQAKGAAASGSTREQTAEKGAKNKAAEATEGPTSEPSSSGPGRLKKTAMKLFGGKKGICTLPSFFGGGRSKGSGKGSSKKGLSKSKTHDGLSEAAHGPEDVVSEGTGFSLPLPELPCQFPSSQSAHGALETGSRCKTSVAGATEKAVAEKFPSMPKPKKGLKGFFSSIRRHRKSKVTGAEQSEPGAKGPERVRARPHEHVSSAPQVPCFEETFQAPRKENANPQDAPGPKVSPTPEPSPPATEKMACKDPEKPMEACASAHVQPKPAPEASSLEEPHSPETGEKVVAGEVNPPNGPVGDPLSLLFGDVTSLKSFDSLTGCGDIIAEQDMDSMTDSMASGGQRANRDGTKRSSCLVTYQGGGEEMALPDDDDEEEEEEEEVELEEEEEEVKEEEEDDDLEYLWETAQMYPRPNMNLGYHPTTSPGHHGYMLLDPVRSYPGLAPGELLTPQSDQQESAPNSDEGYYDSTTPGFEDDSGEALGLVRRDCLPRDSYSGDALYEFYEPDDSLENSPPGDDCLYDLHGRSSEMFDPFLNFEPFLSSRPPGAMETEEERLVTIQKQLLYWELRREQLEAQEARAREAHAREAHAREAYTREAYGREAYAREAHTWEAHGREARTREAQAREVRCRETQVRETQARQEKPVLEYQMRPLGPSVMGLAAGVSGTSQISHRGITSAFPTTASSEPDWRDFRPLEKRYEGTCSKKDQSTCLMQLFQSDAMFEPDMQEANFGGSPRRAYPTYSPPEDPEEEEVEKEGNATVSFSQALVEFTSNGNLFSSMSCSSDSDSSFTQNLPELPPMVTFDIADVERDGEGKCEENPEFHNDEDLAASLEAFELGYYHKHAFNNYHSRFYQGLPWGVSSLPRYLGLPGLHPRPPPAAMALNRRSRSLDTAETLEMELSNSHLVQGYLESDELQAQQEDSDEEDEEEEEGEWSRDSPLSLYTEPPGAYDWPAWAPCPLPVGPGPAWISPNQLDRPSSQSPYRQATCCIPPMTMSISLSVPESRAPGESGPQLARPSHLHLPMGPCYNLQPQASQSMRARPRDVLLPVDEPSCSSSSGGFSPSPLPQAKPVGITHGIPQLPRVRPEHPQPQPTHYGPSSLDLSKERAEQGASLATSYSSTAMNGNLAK

GST-KIF23 (human) = target: T2, GST-KIF23 (human) (UniProt Q02241); assay: pull-down; Pierce GST Protein Interaction Pull-Down Kit; GST-tagged bait from E. coli immobilised on the spin column, prey protein added, Western blot for KIF23 and Amer1; only the target purified
T2 sequence: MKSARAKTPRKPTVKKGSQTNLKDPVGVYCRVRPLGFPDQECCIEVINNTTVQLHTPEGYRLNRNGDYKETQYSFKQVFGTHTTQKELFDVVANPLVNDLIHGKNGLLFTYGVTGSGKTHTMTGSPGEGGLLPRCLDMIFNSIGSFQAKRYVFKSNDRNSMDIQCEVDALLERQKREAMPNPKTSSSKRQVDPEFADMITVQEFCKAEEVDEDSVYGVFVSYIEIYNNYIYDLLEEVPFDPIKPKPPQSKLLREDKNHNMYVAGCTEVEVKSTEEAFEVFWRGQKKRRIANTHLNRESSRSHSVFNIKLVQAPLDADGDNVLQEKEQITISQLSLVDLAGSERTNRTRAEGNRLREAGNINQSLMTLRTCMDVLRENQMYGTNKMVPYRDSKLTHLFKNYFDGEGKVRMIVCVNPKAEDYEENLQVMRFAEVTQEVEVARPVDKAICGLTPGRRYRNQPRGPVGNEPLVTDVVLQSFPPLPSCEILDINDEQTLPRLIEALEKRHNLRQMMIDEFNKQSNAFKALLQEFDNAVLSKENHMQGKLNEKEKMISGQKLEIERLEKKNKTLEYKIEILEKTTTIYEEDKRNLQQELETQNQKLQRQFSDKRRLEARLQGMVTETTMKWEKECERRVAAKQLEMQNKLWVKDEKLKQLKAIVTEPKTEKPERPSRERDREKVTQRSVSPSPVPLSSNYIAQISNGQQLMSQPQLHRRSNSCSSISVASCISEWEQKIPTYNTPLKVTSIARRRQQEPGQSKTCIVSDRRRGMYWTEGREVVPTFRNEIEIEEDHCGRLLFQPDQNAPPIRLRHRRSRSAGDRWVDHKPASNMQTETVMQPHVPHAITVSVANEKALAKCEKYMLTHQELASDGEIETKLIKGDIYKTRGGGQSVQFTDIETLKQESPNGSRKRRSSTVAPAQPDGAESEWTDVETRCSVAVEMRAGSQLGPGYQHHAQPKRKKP

- binding [1]: binds
B1: kinesin family member 23 (KIF23), endogenous (protein, UniProt Q02241 1-960)
chain: T2 sequence

- binding (GST-KIF23 (human)): binds
B2: Flag-Amer1 (exogenous Amer1), in MGC-803 cells (protein, UniProt Q5JTC6 1-1135)
chain: T1 sequence

- binding (GST-KIF23 (human)): binds
B3: FLAG-tagged Amer1-FL (full-length Amer1), in 293T cells (protein, UniProt Q5JTC6 1-1135)
chain: T1 sequence
